PubChem BioAssay AID504784 – Drosophila RNAi Screening Center, 2011
Test: 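Search for regulators of lipid droplet storage in oleate-fed fly cells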 (primary screen). Cells: Drosophila Kc167 embryonic cells. Reagents: long dsRNA against Drosophila genes, about 250 ng dsRNA per well. Duration: 4 days. Conditions: cells fed 400 µM oleic acid bound to BSA. Measurement: 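Cells imaged and segmented; ratio of lipid droplet area to nuclear area, log-transformed, then normalised as a B-score over the screen; higher means more stored lipid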. Scale: droplet/nuclear area B-score: higher = more stored lipid (overstorage).
In all, the deposit lists about 17,000 reagents; shown is an unselected part of those with a known target gene and a result. 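Each column is one replicate's B-score; the combined score over replicates was not deposited, so single values may mislead.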 A plus sign joins genes that one reagent is predicted to hit.

gene	PubChem SID	droplet/nuclear area B-score, replicate 1	droplet/nuclear area B-score, replicate 2	droplet/nuclear area B-score, replicate 3
CG6683	SID104190486	0.16	0.181	
CG31797	SID104182268	1.17	-1.36	
CG31797	SID104182269	-0.886	-0.525	
CG14673 (retired record)	SID104192051	1.61	0.529	
CG10469	SID104189521	0.831	0.872	
Lerp	SID104194542	-1.5	0.959	
Lerp	SID104194543	0.178	0.833	
Lerp	SID104195822	-0.772	0.0736	
Lerp	SID104195823	-1.52	-1.05	
hmw	SID104196069	2.01	0.0811	
CG1965	SID104192369		-0.295	0.32
CG1965	SID104201477	-0.0204	-3.49	
CG14618	SID104200423	-0.533	-1.38	
Pglym87	SID104195044	-0.806	-0.126	
Sdhaf3	SID104194812	-0.0472	-1.44	
CG15036	SID104197760	-1.07		
CG15263	SID104181766	1.95	-1.2	0.224
CG33181	SID104197763	0.517	-0.821	
CG33181	SID104201857	-0.233	1.14	
ninaD	SID104182678	-0.000693	2.35	
robo1	SID104184504	-0.0302	-0.293	
CG32708	SID104198203	0.0243	0.62	0.275
CG7755	SID104186832	0.937	0.8	
Ype	SID104200093	-1.1	-0.489	-0.0865
CG13096	SID104181990	0.206	-0.0598	
CG12728	SID104197675	-0.347	-1.2	-0.112
CG17249	SID104188309	0.32	0.441	
CG11291	SID104183889	0.668	0.072	
CG5282	SID104191567	0.0419	-0.0301	-0.33
PpN58A	SID104184434	-0.945	-0.867	

7 entries from above, ordered by “droplet/nuclear area B-score, replicate 2”, high to low:
gene	PubChem SID	droplet/nuclear area B-score, replicate 1	droplet/nuclear area B-score, replicate 2	droplet/nuclear area B-score, replicate 3
Lerp	SID104194542	-1.5	0.959	
CG10469	SID104189521	0.831	0.872	
Lerp	SID104194543	0.178	0.833	
CG14673 (retired record)	SID104192051	1.61	0.529	
Lerp	SID104195822	-0.772	0.0736	
CG31797	SID104182269	-0.886	-0.525	
Lerp	SID104195823	-1.52	-1.05	

Next entries:
gene	PubChem SID	droplet/nuclear area B-score, replicate 1	droplet/nuclear area B-score, replicate 2	droplet/nuclear area B-score, replicate 3
CG34214	SID104184282	1.56	0.138	
CG11158	SID104199181	-0.899	-1.33	3.14
IKKepsilon	SID104183342	1.13	3.6	
upd3	SID104199428	-1.38	-1.67	
upd3	SID104199760	2.27	0.572	
upd3	SID104201715	-0.00197	0.593	
sws	SID104198635	-0.445	0.627	0.0717
CG33140	SID104185822	0.209	1.07	
RpL28 + snoRNA:Or-CD12	SID104188085	2.01	2.24	
CG10969	SID104189603	-0.327	-0.682	
p47	SID104185838	-1.28	0.622	
CG43901	SID104199189	-0.454	-0.492	-2.03
CG43901	SID104199444	0.0597	-0.861	3.63
AIF	SID104180488	4.22	10.6	
Cdlc2	SID104180535	0.561	0.0212	
CG6178	SID104195776	-0.756	0.84	
CG6012	SID104182713	-0.807	0.171	
ort	SID104196032	0.227	-0.173	
Hdc	SID104187231	1.35	1.55	
CG14573	SID104191526	0.515	0.953	
ppk7	SID104183028	0.0586	-0.546	
CG3097	SID104198067	-0.88	0.715	
CG5989	SID104190357	0.0202	1.94	
wntD	SID104196215	-0.756	-1.91	
CG6847	SID104199005	0.167	0.602	
CG6847	SID104199801	1.27	2.03	
CG8858	SID104187082	0.878	-1.01	
Dhc62B	SID104188447	0.304	2.15	
CG40053 (retired record)	SID104200625	1.9	0.122	
Nadk1a	SID104185223	2.32	0.866	
Nadk1a	SID104186755	0.0392	0.179	
Bace	SID104181989	-2	-3.77	
CG4270	SID104180440	-0.205	-0.647	
Mtpbeta	SID104184455	0.578	4.14	
CG1690	SID104186428	0.634	1.67	
ENGase	SID104199744	-0.992	-1.49	
ENGase	SID104199745	0.363	1.52	
CG13045	SID104189718	-0.477	-0.736	
mle	SID104184713	-0.0843	1.05	
5-HT1A	SID104184822	-0.0428	-0.355	
bt	SID104196921	-0.587	-0.00339	
bt	SID104196963	0.688	-0.00339	
ppk24	SID104194885	-2.39	1.31	
Spc105R	SID104191455	0.707	0.687	
Miro	SID104195587	-0.507	-1.38	
alc	SID104186854	0.0512	0.558	
alc	SID104201202	-0.00515	-0.554	
alc	SID104202673	-0.482	-2.11	
Ssb-c31a	SID104183235	0.629	-0.768	
rpk	SID104192178	1.14	0.00271	-0.0512
rpk	SID104201345	-0.759	0.0345	
Ork1	SID104200058	1.62	0.889	0.784
IntS14	SID104180460	0.703	-0.0494	
